In article PMC2868851:
Construct, isoform or probe ends are uncertain for at least one entry. At least one verdict was read from the data and is not stated in words by the source. For some of these results: Tags and fusion partners may be left off the protein sequences shown.

Key:
Test in all cases: EMSA
EN-M (TRAS1EN-TRF1 Myb) = settings: 0.04-1 uM protein; EMSA: 20 mM Hepes pH 7.9, 150 mM KCl, 0.1 mM EDTA, 1 mM DTT, 4% Ficoll, 5% glycerol, 0.1 mg/ml BSA, 3 ng/ul salmon sperm DNA, ~1 nM probe, 4 C, 60 min; native 5% PAGE; recombinant protein; protein details: C-terminal His; label: 5'-32P
[1] = tested on: EN-NM (TRAS1EN-TRF1 NLS-Myb); settings: 0.04-1 uM protein; EMSA: 20 mM Hepes pH 7.9, 150 mM KCl, 0.1 mM EDTA, 1 mM DTT, 4% Ficoll, 5% glycerol, 0.1 mg/ml BSA, 3 ng/ul salmon sperm DNA, ~1 nM probe, 4 C, 60 min; native 5% PAGE; recombinant protein; protein details: C-terminal His; label: 5'-32P
EN-T (TRAS1EN-TRF1) = settings: 0.04-1 uM protein; EMSA: 20 mM Hepes pH 7.9, 150 mM KCl, 0.1 mM EDTA, 1 mM DTT, 4% Ficoll, 5% glycerol, 0.1 mg/ml BSA, 3 ng/ul salmon sperm DNA, ~1 nM probe, 4 C, 60 min; native 5% PAGE; recombinant protein; protein details: C-terminal His; label: 5'-32P
M-EN (TRF1 Myb-TRAS1EN) = settings: 0.04-1 uM protein; EMSA: 20 mM Hepes pH 7.9, 150 mM KCl, 0.1 mM EDTA, 1 mM DTT, 4% Ficoll, 5% glycerol, 0.1 mg/ml BSA, 3 ng/ul salmon sperm DNA, ~1 nM probe, 4 C, 60 min; native 5% PAGE; recombinant protein; protein details: C-terminal His; label: 5'-32P
T-EN (TRF1-TRAS1EN) = settings: 0.04-1 uM protein; EMSA: 20 mM Hepes pH 7.9, 150 mM KCl, 0.1 mM EDTA, 1 mM DTT, 4% Ficoll, 5% glycerol, 0.1 mg/ml BSA, 3 ng/ul salmon sperm DNA, ~1 nM probe, 4 C, 60 min; native 5% PAGE; recombinant protein; protein details: C-terminal His; label: 5'-32P
TRF1 (T) (human) = biological target: T1, TRF1 (T) (human) (UniProt P54274); settings: EMSA: 20 mM Hepes pH 7.9, 150 mM KCl, 0.1 mM EDTA, 1 mM DTT, 4% Ficoll, 5% glycerol, 0.1 mg/ml BSA, 3 ng/ul salmon sperm DNA, ~1 nM probe, 4 C, 60 min; native 5% PAGE; recombinant protein; protein details: C-terminal His; label: 5'-32P
T1 sequence (looked up, limits assumed): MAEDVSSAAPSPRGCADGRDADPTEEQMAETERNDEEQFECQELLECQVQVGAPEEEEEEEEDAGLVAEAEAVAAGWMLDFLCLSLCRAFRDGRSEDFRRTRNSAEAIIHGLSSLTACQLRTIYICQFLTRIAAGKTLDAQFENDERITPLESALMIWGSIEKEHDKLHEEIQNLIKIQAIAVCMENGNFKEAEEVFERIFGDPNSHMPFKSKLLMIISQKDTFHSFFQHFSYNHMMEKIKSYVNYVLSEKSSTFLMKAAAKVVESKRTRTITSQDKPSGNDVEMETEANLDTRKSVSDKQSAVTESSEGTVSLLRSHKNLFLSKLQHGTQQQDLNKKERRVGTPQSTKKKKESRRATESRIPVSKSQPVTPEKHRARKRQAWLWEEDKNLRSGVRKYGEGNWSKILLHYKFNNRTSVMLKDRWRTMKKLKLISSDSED

[2] = biological target: TRF1 Myb domain (M) (human) (UniProt P54274); settings: EMSA: 20 mM Hepes pH 7.9, 150 mM KCl, 0.1 mM EDTA, 1 mM DTT, 4% Ficoll, 5% glycerol, 0.1 mg/ml BSA, 3 ng/ul salmon sperm DNA, ~1 nM probe, 4 C, 60 min; native 5% PAGE; recombinant protein; protein details: C-terminal His; label: 5'-32P

Measured: binding result

TTAGGGTTAGGGTTAGGGTTAGGGTTAGGG (double strand) [TR5]
binds: all assays above
